Reference: the supplement of paper PMC7877785
± gives the uncertainty stated by the source. Many entries were measured with a wide error.

Assay: self-splicing fitness, log relative to wild type (ln ratio); higher = more splicing; Tetrahymena group I intron in knt gene, E. coli kanamycin selection, DiMSum; sequences stand for … in CUCUCU…GGAGGGAAAAGUUAUCAGGCAUGCACCUGGUAGCUAGUCUUUAAACCAAUAGAUUGCAUCGGUUUAAAAGGCAAGACCGUCAAAUUGCGGGAAAGGGGUCAACAGCCGUUCAGUACCAAGUCUCAGGGGAAACUUUGAGAUGGCCUUGCAAAGGGUAUGGUAAUAAGCUGACGGACAUGGUCCUAACCACGCAGCCAAGUCCUAAGUCAACAGAUCUUCUGUUGAUAUGGAUGCAGUUCACAGACUAAAUGUCGGUCGGGGAAGAUGUAUUCUUCUCAUAAGAUAUAGUCGGACCUCUCCUUAAUGGGAGCUAGCGGAUGAAGUGAUGCAACACUGGAGCCGCUGGGAACUAAUUUGUAUGCGAAAGUAUAUUGAUUAGUUUUGGAGUACUCGUGGUCG
Outline: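 Six replicate transformations of E. coli BL21(DE3) with a pET-22b(+) library were grown overnight at 37°C or 30°C. The library randomised all eight P1ex-region intron nucleotides, the intron lying in the knt kanamycin-resistance gene, and plates were LB agar with or without 25 μg/mL kanamycin plus 100 μg/mL carbenicillin, 50 μM IPTG and 0.2% rhamnose. Pooled colonies were amplicon-sequenced on an Illumina HiSeq 2500, and fitness is the DiMSum error-weighted combination of wild-type-normalised replicate fold changes, kanamycin versus none.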

| Sequence | self-splicing fitness (ln) (37 °C) | self-splicing fitness (ln) (30 °C) |
| --- | --- | --- |
| AGGAAGCAAUAUUACGCUGC | -3.68 ± 0.73 | – |
| GGCUAGCAAUAUUACGAAAC | – | 0.467 ± 0.5 |
| UUAGAGCAAUAUUACGGGGG | -1.79 ± 0.36 | -3.04 ± 0.31 |
| UACAAGCAAUAUUACGACAU | -0.59 ± 0.032 | -1.474 ± 0.012 |
| CAUGAGCAAUAUUACGUUUG | -2.89 ± 0.2 | -3.57 ± 0.16 |
| CACGAGCAAUAUUACGUAUA | – | -3.69 ± 0.76 |
| AUCGAGCAAUAUUACGCAUC | -3.43 ± 0.52 | – |
| CGAAAGCAAUAUUACGCCCC | -0.927 ± 1.2 | 1.22 ± 1 |
| AUUAAGCAAUAUUACGAAGA | -0.906 ± 0.68 | -1.73 ± 0.67 |
| CGGGAGCAAUAUUACGGGAA | – | -4.01 ± 0.73 |
| UGUAAGCAAUAUUACGCCCG | -0.677 ± 0.71 | 0.0292 ± 0.63 |
| UAUCAGCAAUAUUACGCUGA | – | -3.63 ± 1 |
| CCAUAGCAAUAUUACGCCAC | – | -3.23 ± 0.74 |
| CGGUAGCAAUAUUACGAGAC | -2.54 ± 0.75 | -4.06 ± 0.52 |
| GGUCAGCAAUAUUACGAAAA | -1.29 ± 1.2 | – |
| GGCGAGCAAUAUUACGCGGC | -2.08 ± 0.58 | -4.04 ± 0.73 |
| UGGAAGCAAUAUUACGCCUU | -1.76 ± 0.53 | – |
| CACGAGCAAUAUUACGCUGC | -3.21 ± 0.74 | -3.63 ± 1 |
| UAAGAGCAAUAUUACGCGGC | -2.57 ± 1.1 | -3.94 ± 0.72 |
| UCUUAGCAAUAUUACGUAUA | – | -4.5 ± 0.6 |
| GGCUAGCAAUAUUACGAUGG | – | -4.24 ± 0.59 |
| AUUGAGCAAUAUUACGAGCG | -2.76 ± 0.53 | – |
| CCACAGCAAUAUUACGCGCC | -1.69 ± 0.81 | – |
| CCGCAGCAAUAUUACGUCCC | – | -3.63 ± 0.6 |
| GAGUAGCAAUAUUACGCACG | -1.49 ± 0.53 | – |

| Sequence | self-splicing fitness (ln) (37 °C) | self-splicing fitness (ln) (30 °C) |
| --- | --- | --- |
| UGUAAGCAAUAUUACGCGGC | – | -3.9 ± 0.6 |
| AGGGAGCAAUAUUACGAGGG | – | -3.93 ± 0.53 |
| AUUAAGCAAUAUUACGAAAG | -1.23 ± 0.16 | -1.89 ± 0.15 |
| AAACAGCAAUAUUACGCCAC | – | -4.07 ± 0.72 |
| GUGAAGCAAUAUUACGCACC | – | -4.63 ± 0.58 |
| UAUUAGCAAUAUUACGGGAU | – | -3.8 ± 0.52 |
| GCUCAGCAAUAUUACGAGGU | -2.08 ± 0.23 | -1.06 ± 0.12 |
| GGAGAGCAAUAUUACGUUCC | – | -4.39 ± 1 |
| GGUUAGCAAUAUUACGAAAC | – | -1.08 ± 0.87 |
| UGAGAGCAAUAUUACGCCUC | -1.11 ± 0.87 | -2.81 ± 0.55 |
| GCACAGCAAUAUUACGGCUC | 0.523 ± 0.076 | -0.268 ± 0.071 |
| CGGGAGCAAUAUUACGUUGC | -0.44 ± 1.4 | – |
| GACGAGCAAUAUUACGGGAG | -2.4 ± 0.54 | -5.31 ± 0.72 |
| CAAUAGCAAUAUUACGCCAC | -3.6 ± 0.73 | – |
| CGGUAGCAAUAUUACGAGUA | -1.32 ± 0.4 | -2.5 ± 0.56 |
| GAGGAGCAAUAUUACGCGCC | -1.08 ± 0.66 | – |
| AGCGAGCAAUAUUACGUCGC | -2.9 ± 0.74 | -2.94 ± 1.1 |
| AGUCAGCAAUAUUACGUUGA | – | -4.05 ± 0.51 |
| AUUAAGCAAUAUUACGCCAC | – | -2.88 ± 0.75 |
| GAUAAGCAAUAUUACGGGGA | – | -2.76 ± 0.55 |
| CCGCAGCAAUAUUACGCCAA | -2.06 ± 0.34 | -3.73 ± 0.38 |
| GGCCAGCAAUAUUACGACGG | -2.8 ± 0.53 | -3.72 ± 0.61 |
| AGGGAGCAAUAUUACGGUCC | -2.17 ± 0.65 | -3.47 ± 1 |
| AAGAAGCAAUAUUACGGAAC | – | -3.9 ± 0.6 |
| GUCGAGCAAUAUUACGGCAG | – | -4.14 ± 0.6 |

Look-ups from above.
AGGGAGCAAUAUUACGAGGG | self-splicing fitness (ln) (30 °C): -3.93 ± 0.53
GAGGAGCAAUAUUACGCGCC | self-splicing fitness (ln) (37 °C): -1.08 ± 0.66
AUUAAGCAAUAUUACGAAAG | self-splicing fitness (ln) (30 °C): -1.89 ± 0.15

(continued)

| Sequence | self-splicing fitness (ln) (37 °C) | self-splicing fitness (ln) (30 °C) |
| --- | --- | --- |
| CCUGAGCAAUAUUACGAGCC | – | -2.65 ± 1.1 |
| AGCGAGCAAUAUUACGUUUA | – | -4.36 ± 1 |
| AGUGAGCAAUAUUACGCCGU | -1.85 ± 0.51 | – |
| CAGUAGCAAUAUUACGCCCU | -1.3 ± 0.32 | -4 ± 0.54 |
| CUUAAGCAAUAUUACGCCAC | -1.78 ± 0.67 | -1.52 ± 0.5 |
| CGGGAGCAAUAUUACGCUUG | – | -4.23 ± 0.6 |
| ACCGAGCAAUAUUACGUCCC | 0.905 ± 0.79 | -2.79 ± 1.2 |
| UUCGAGCAAUAUUACGGCAC | -1.72 ± 0.7 | – |
| UGAUAGCAAUAUUACGCAGC | -0.373 ± 0.92 | -0.572 ± 1.2 |
| UUGGAGCAAUAUUACGCCGG | – | -2.42 ± 0.82 |
| UCUGAGCAAUAUUACGCGCC | -1.64 ± 0.58 | -1.75 ± 0.58 |
| AAAUAGCAAUAUUACGCGGG | -1.23 ± 0.12 | -3.02 ± 0.19 |
| UGAUAGCAAUAUUACGAGAC | – | -4.06 ± 0.53 |
| UAUUAGCAAUAUUACGCCUC | – | -3.46 ± 1.1 |
| UUCGAGCAAUAUUACGAAGU | – | -3.6 ± 1 |
| CGAUAGCAAUAUUACGUAUC | -2.31 ± 1.1 | – |
| GGGGAGCAAUAUUACGCACU | -1.18 ± 0.55 | – |
| GUUAAGCAAUAUUACGAGUA | -1.32 ± 0.095 | -2.5 ± 0.12 |
| CGGGAGCAAUAUUACGAGAA | -2.82 ± 0.53 | -2.61 ± 0.63 |
| GGGGAGCAAUAUUACGCAGG | – | -3.4 ± 0.75 |
| UGUUAGCAAUAUUACGCCAU | -1.86 ± 0.66 | -3.21 ± 0.51 |
| UCUUAGCAAUAUUACGCUGA | – | -3.27 ± 1.1 |
| CGCUAGCAAUAUUACGCUAU | – | -4 ± 0.61 |
| UCCUAGCAAUAUUACGAAUC | – | -5.08 ± 0.72 |
| ACUGAGCAAUAUUACGAGUU | -2.91 ± 0.28 | -2.88 ± 0.17 |

| Sequence | self-splicing fitness (ln) (37 °C) | self-splicing fitness (ln) (30 °C) |
| --- | --- | --- |
| AGAGAGCAAUAUUACGAAAC | -0.927 ± 1.2 | – |
| AGGAAGCAAUAUUACGAAUC | -4.08 ± 0.72 | – |
| GGGGAGCAAUAUUACGAGAG | -1.6 ± 0.59 | – |
| UAGGAGCAAUAUUACGGGCC | -2.25 ± 0.78 | -3.31 ± 1 |
| CGGUAGCAAUAUUACGCAAC | – | -4.33 ± 1 |
| UUUCAGCAAUAUUACGGAAC | -2.67 ± 1.1 | – |
| AGCGAGCAAUAUUACGAUGC | -3.08 ± 0.61 | – |
| AAAGAGCAAUAUUACGCCAA | -1.13 ± 0.55 | – |
| UUAUAGCAAUAUUACGCGUC | – | -3.63 ± 1 |
| AGAGAGCAAUAUUACGACAC | – | -4.19 ± 0.6 |
| GGUAAGCAAUAUUACGCCGG | -1.93 ± 0.47 | -3.09 ± 0.47 |
| CAUCAGCAAUAUUACGCCGC | -1.97 ± 0.57 | – |
| GGGUAGCAAUAUUACGACCU | -2.59 ± 0.55 | – |
| CGCGAGCAAUAUUACGGUUC | -1.79 ± 0.67 | -4.02 ± 0.59 |
| AGCAAGCAAUAUUACGUAUU | -1.24 ± 0.11 | -3.02 ± 0.14 |
| ACCCAGCAAUAUUACGGCCU | 0.0547 ± 0.067 | -0.518 ± 0.052 |
| UUUAAGCAAUAUUACGCUUC | -3.12 ± 0.52 | – |
| CCCGAGCAAUAUUACGCAGC | – | -2.98 ± 0.61 |
| AGCAAGCAAUAUUACGCUUA | -1.71 ± 0.11 | -2.94 ± 0.15 |
| GUUAAGCAAUAUUACGCAAC | – | -1.93 ± 0.54 |
| UACGAGCAAUAUUACGCUUG | -2.43 ± 0.55 | – |
| AGGGAGCAAUAUUACGACAC | – | -2.12 ± 0.57 |
| UCGAAGCAAUAUUACGCAAA | – | -4.05 ± 1 |

Shown with tabs: entries from further up
Sequence	self-splicing fitness (ln) (37 °C)	self-splicing fitness (ln) (30 °C)
GUUAAGCAAUAUUACGAGUA	-1.32 ± 0.095	-2.5 ± 0.12
AGAGAGCAAUAUUACGAAAC	-0.927 ± 1.2	–
